Library screening results

Amino acid sequences for entries named in this document (tags omitted).
UniProt E9BF75, entry or part of it: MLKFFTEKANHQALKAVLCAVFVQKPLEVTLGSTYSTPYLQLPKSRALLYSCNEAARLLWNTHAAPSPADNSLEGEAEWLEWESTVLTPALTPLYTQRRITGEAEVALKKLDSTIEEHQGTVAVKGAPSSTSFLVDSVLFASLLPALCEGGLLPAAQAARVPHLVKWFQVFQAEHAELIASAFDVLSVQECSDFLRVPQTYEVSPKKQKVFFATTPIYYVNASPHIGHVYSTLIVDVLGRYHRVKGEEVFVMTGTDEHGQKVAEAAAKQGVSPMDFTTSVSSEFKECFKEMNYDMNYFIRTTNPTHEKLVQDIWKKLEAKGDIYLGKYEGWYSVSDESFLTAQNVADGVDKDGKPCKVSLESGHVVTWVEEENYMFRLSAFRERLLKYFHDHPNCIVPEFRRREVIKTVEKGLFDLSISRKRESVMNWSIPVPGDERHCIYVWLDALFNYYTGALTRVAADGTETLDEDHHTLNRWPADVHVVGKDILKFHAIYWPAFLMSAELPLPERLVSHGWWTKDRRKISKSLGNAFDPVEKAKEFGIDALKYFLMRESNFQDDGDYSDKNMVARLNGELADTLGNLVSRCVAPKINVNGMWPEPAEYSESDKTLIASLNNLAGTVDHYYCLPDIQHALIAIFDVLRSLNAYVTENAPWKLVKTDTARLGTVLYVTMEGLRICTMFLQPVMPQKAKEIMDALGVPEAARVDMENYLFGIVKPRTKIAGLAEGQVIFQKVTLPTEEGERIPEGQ

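Methionyl-tRNA synthetase (putative), Leishmania donovani (UniProt E9BF75). Primary screen of methionyl-tRNA synthetase; the read-out is not stated. The test concentration is not given. Values are per cent inhibition. About 68,000 compounds were tested under these conditions; 0.035% (about 24) showed 50% or more at least once.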

All values are in %.
How 0% and 100% were set is not recorded. Most values in the screen are low, and negative values occur.
This is an unselected part of the compounds tested.

Compound	Inhibition
O=C(NCCC(=O)N1CCCc2ccccc21)c1c(O)cc(F)cc1F	15.28
CCCc1nc(CNC(=O)Cc2csc(C)n2)cs1	15.28
COc1c(CNCc2cccc(Cn3ccnc3C)c2)c(C)nn1C	22.78
CN(C)c1ncc(CN2CCC(O)(c3ccccc3F)CC2)cn1	4.037
Cc1cc(C)n(C2CN(Cc3noc(C4CC4)n3)C2)n1	6.812
CCc1ccc(C2CCCN2C(=O)Cc2ccc(NC(C)=O)cc2)o1 (stereo not given)	11.8
Cn1cc(C2CCCN2C(=O)CCCOc2ccc(F)cc2F)cn1 (stereo not given)	4.225
Cn1ncc2c1NC(=O)CC2c1ccc(Cl)cc1Cl (stereo not given)	10.56
Cc1noc(C)c1CN1CC[C@H]2OCC[C@@]2(C(=O)N2CCCC2)C1	0.6667
Cc1ccc(F)cc1NC(=O)C1CCCN1C(=O)C(C)C (stereo not given)	13.11
CCc1oc2ccc(NS(C)(=O)=O)cc2c1C(=O)OC	9.832
CC(C)S(=O)(=O)N1C[C@@H](O)[C@H](N(C)Cc2ccc(F)cc2)C1	6.231
COCCc1noc(C2CCCN(c3nc(N)nc4c3CCCC4)C2)n1 (stereo not given)	9.296
Cc1cc(CN2C[C@H]3CCC[C@@]3(COCC3CCOCC3)C2)no1	10.03
COCc1cncc2c1CCN(C(=O)c1ccc(C)o1)C2	12.97
CSCC(CCO)NC(=O)Nc1cc(C)ccc1C (stereo not given)	8.374
COCCN1CC[C@@H](O)[C@@H]1Cc1ccccc1	12.03
CN(C)c1ccc(C(=O)NCCCc2ccccn2)cn1	2.821
CC(C)n1ncc2c1NC(=O)CC21C(=O)Nc2c(Cl)cc(Br)cc21 (stereo not given)	8.182
CC(C)CNC(=O)c1c(-n2cnnn2)sc2c1CCCC2	18.7
Cc1ccc(C(=O)NCCC(C)C)cc1NS(C)(=O)=O	0.6873
CCCC(NC(=O)c1ccccc1Br)c1nnn[nH]1 (stereo not given)	9.549
CCCn1[nH]cc/c1=N\C(=O)CN1CCCC1Cn1cc(C)cn1 (stereo not given)	14.52
COCCN(C)CC1CCCN1S(=O)(=O)c1cccc(F)c1F (stereo not given)	9.235
CC(C)CN1C[C@@H](C(=O)O)C[C@@H](C(=O)NCc2ccncc2)C1	9.322
CC(C)N1CCN(S(=O)(=O)c2ncn(C)c2Cl)CC1	8.152
O=C(c1cccs1)N1CCc2c(nc(N3CCCCC3)[nH]c2=O)C1	14.58
COCC1CN(CC2CC2)Cc2ncn(CC3CC3)c21 (stereo not given)	19.8
CNC(=O)[C@H]1C[C@@H]2CCN(Cc3nccs3)C[C@H]2O1	14.92
Cc1ccoc1C(=O)N1CC(C(=O)NCC2CC2)C2(CCOCC2)C1 (stereo not given)	14.89
Cc1nc(CN2C[C@@H]3CCCO[C@@H]3[C@H](N(C)C(C)C)C2)cs1	1.73
Cc1noc(C)c1CC(=O)N1CCC(c2ccn3nccc3n2)CC1	11.64
Cn1cc(C2CC(=O)NC23CCN(CC2CC2)CC3)cn1 (stereo not given)	11.3
O=S(=O)(C1CC1)N1CCOC2(CCCN(Cc3ccccn3)C2)C1 (stereo not given)	2.186
COc1cc(CNC(=O)NCc2c(C)cc(C)[nH]c2=O)ccc1C	12.24
CCC(C)NC(=O)CS(=O)(=O)Cc1cc(Cl)ccc1OC (stereo not given)	10.48
CN1CCC(N(Cc2ccco2)S(=O)(=O)c2ccc(Cl)cc2)CC1	4.897
Cc1cccnc1[C@H](C)Nc1nc(-c2cccnc2)nc2c1CNC2	29.43
CC(c1ccc(F)cc1F)N1CCN(CCN2CCCC2=O)CC1 (stereo not given)	13.01
Cc1cc(-n2nc(C3CC3)nc2-c2csnn2)ccn1	13.7
O=C(C1CCOCC1)N1C[C@@H]2C[C@@H](c3nc(C4CC4)cs3)O[C@@H]2C1	8.5
CCc1ccc(CN(CCN(C)C)Cc2ccc(C)s2)nc1	11.03
Cn1cc(CN2CCc3ncn(C)c3C2COCc2ccccc2)cn1 (stereo not given)	14.66
CS(=O)(=O)CCSc1cccc(C#N)c1	8.85
CCN(C)c1ncnc2c1CCN(C(=O)c1ccccn1)CC2	9.677
COCc1cn(C2CCN(C(=O)Cc3ccsc3)CC2)nn1	9.622
COc1ccc(CN2C[C@@H]3OCC(=O)N(CC(N)=O)[C@@H]3C2)cc1	8.271
COc1ccc(NC(C)c2ccc(C#N)cc2)cc1N1CCCC1=O (stereo not given)	4.485
Clc1ccc(OCCCN2CCOC(Cn3cncn3)C2)cc1 (stereo not given)	9.687
CC(CNC(=O)c1cc(Cl)ccc1I)N1CCCC1 (stereo not given)	10.66
Cn1cc(CN2CCCC3(CCN(c4cccnc4)C3=O)C2)cn1 (stereo not given)	-9.333
Cc1csc(CCNC(=O)C2CCCN(C3CCOCC3)C2)n1 (stereo not given)	7.292
Cc1cc(NC(=O)Cc2ccccc2O)c[nH]c1=O	9.946
Oc1cccc(CNCc2ccc(-n3cncn3)nc2)c1	16.53
COCCN(C)CCN1CC2(CCN(C3CCCOC3)CC2)OC1=O (stereo not given)	7.087
CC1(C(=O)NCCc2ccc(F)cc2)CCOCC1	2.286
O=C(C1CCOC1)N1CCN(CC(F)(F)F)c2ccccc21 (stereo not given)	12.7

4 of the entries, repeated:

Compound	Inhibition
CCN(C)c1ncnc2c1CCN(C(=O)c1ccccn1)CC2	9.677
Cc1nc(CN2C[C@@H]3CCCO[C@@H]3[C@H](N(C)C(C)C)C2)cs1	1.73
Cn1ncc2c1NC(=O)CC2c1ccc(Cl)cc1Cl (stereo not given)	10.56
Cc1ccc(F)cc1NC(=O)C1CCCN1C(=O)C(C)C (stereo not given)	13.11

From ChEMBL document CHEMBL3988442, “University of Dundee, Small-Polar-MMV Screening Library” (2021).